These are yes or no findings as the source states them, for the method shown. Some results given as binding are weak or reduced against the parent protein; the word gives no strength.
Experiments:
S. cerevisiae ATG2 = S. cerevisiae ATG2 (S. cerevisiae, UniProt P53855 1-1592); test: pull-down
[1] = target: ATG2A with MBP inserted after residue 1224 (in ATG2_CAD) (human) (UniProt Q2TAZ0); test: negative-stain EM
[2] = target: ATG2A with MBP inserted after residue 1344 (human) (UniProt Q2TAZ0); test: negative-stain EM
[3] = target: ATG2A with MBP inserted after residue 1373 (human) (UniProt Q2TAZ0); test: negative-stain EM
[4] = target: ATG2A with MBP inserted after residue 1503 (human) (UniProt Q2TAZ0); test: negative-stain EM
[5] = target: ATG2A with MBP inserted after residue 1829 (between the CLR and ATG_C) (human) (UniProt Q2TAZ0); test: negative-stain EM

Chains of the proteins cited; added tags and fusions are not shown.
UniProt P53855: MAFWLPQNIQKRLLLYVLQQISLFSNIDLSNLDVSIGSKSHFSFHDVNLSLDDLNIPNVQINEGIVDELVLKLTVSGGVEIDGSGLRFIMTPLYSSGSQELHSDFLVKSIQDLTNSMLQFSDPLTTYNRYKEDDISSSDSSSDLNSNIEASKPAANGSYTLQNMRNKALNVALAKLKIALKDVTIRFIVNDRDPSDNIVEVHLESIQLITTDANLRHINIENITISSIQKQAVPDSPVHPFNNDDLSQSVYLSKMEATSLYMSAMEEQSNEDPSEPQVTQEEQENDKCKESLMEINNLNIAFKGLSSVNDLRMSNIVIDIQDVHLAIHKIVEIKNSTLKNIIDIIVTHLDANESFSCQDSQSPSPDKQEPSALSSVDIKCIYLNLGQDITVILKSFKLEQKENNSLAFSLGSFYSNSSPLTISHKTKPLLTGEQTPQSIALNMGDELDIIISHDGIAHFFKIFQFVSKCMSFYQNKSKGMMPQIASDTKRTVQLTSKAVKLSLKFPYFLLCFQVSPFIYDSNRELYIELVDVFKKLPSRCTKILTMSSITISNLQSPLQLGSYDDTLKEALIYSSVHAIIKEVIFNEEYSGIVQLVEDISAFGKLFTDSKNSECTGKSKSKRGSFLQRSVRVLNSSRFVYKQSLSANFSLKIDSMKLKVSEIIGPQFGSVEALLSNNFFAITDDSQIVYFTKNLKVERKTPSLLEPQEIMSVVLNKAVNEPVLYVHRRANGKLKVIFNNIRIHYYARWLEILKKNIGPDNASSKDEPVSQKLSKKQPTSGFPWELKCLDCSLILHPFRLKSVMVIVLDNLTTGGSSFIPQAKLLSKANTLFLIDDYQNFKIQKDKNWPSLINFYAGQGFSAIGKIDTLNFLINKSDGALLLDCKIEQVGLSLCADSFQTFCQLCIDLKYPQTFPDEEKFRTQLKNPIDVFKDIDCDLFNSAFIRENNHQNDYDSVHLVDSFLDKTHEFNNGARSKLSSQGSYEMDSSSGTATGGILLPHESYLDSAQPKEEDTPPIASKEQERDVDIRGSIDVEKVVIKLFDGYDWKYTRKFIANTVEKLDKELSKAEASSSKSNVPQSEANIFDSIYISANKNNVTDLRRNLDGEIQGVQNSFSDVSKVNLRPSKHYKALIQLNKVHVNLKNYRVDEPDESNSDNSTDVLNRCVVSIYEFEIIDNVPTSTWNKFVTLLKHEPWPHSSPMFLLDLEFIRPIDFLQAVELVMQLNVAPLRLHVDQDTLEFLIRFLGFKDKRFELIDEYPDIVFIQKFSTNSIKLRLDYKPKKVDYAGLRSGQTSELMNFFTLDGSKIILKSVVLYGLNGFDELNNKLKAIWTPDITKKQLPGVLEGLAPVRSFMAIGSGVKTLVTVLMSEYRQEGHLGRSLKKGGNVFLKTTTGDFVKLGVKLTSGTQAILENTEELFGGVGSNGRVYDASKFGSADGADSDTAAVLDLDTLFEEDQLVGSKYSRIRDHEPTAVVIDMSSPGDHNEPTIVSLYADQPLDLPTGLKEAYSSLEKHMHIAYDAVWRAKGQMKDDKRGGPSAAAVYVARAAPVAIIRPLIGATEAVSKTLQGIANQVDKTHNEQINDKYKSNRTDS
UniProt Q2TAZ0: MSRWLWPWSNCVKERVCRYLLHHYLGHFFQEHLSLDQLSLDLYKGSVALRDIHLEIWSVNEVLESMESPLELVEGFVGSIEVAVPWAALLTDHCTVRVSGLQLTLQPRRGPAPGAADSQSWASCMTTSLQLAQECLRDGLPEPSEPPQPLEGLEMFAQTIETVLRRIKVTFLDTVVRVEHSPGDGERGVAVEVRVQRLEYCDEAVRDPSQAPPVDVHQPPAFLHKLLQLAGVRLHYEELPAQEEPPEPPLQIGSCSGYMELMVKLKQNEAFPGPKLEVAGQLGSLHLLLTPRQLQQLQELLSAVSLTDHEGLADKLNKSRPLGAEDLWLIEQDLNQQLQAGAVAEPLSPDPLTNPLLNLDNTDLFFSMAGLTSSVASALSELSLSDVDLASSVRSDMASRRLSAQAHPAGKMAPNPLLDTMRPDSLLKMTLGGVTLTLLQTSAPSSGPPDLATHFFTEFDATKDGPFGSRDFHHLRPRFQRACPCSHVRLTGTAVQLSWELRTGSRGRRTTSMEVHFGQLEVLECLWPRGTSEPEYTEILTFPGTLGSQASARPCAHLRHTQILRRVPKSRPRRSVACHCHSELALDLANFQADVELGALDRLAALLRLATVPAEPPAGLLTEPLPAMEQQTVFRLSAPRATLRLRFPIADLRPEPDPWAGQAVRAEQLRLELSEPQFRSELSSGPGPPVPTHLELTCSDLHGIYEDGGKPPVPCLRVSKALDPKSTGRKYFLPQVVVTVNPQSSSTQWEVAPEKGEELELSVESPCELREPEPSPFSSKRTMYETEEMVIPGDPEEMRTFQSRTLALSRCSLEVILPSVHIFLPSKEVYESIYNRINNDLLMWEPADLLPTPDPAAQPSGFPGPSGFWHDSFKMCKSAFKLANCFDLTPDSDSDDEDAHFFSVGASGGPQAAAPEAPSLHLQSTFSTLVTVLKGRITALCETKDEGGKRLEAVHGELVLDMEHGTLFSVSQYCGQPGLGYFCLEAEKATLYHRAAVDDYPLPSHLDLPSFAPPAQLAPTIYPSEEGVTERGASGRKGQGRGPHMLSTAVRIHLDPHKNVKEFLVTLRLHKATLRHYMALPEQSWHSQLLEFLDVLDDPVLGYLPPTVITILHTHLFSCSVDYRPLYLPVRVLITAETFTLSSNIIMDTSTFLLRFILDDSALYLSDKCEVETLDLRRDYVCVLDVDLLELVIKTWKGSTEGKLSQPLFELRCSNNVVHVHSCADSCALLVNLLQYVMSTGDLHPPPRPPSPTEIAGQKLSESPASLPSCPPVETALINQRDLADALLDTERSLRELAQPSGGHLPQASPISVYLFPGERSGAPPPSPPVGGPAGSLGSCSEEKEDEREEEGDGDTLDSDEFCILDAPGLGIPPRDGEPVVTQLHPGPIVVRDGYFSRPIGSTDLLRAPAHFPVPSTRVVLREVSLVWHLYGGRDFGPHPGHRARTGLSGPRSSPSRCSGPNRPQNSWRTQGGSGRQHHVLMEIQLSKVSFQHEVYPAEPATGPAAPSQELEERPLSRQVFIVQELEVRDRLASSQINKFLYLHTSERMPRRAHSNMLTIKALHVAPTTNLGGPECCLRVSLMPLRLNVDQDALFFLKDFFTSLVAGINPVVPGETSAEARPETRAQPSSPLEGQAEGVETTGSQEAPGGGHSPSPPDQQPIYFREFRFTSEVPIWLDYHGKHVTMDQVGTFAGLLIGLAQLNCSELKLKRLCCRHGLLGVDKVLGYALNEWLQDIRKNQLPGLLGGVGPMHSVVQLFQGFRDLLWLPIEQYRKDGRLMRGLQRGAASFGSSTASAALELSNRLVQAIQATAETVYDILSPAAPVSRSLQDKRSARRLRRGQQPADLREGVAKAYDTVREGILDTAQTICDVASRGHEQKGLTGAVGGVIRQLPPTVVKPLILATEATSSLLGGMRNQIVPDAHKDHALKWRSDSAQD

binding (S. cerevisiae ATG2) | binding [1] | binding [2] | binding [3] | binding [4] | binding [5] | Binder
binds weakly | – | – | – | – | – | ATG18 (natural protein, S. cerevisiae, UniProt P43601 1-500, looked up) MSDSSPTINFINFNQTGTCISLGTSKGFKIFNCEPFGKFYSEDSGGYAIVEMLFSTSLLALVGIGDQPALSPRRLRIINTKKHSIICEVTFPTSILSVKMNKSRLVVLLQEQIYIYDINTMRLLHTIETNPNPRGLMAMSPSVANSYLVYPSPPKVINSEIKAHATTNNITLSVGGNTETSFKRDQQDAGHSDISDLDQYSSFTKRDDADPTSSNGGNSSIIKNGDVIVFNLETLQPTMVIEAHKGEIAAMAISFDGTLMATASDKGTIIRVFDIETGDKIYQFRRGTYATRIYSISFSEDSQYLAVTGSSKTVHIFKLGHSMSNNKLDSDDSNMEEAAADDSSLDTTSIDALSDEENPTRLAREPYVDASRKTMGRMIRYSSQKLSRRAARTLGQIFPIKVTSLLESSRHFASLKLPVETNSHVMTISSIGSPIDIDTSEYPELFETGNSASTESYHEPVMKMVPIRVVSSDGYLYNFVMDPERGGDCLILSQYSILMD
– | binds | binds | binds | binds | binds | human WIPI4 (natural protein, UniProt Q9Y484 1-360, looked up) MTQQPLRGVTSLRFNQDQSCFCCAMETGVRIYNVEPLMEKGHLDHEQVGSMGLVEMLHRSNLLALVGGGSSPKFSEISVLIWDDAREGKDSKEKLVLEFTFTKPVLSVRMRHDKIVIVLKNRIYVYSFPDNPRKLFEFDTRDNPKGLCDLCPSLEKQLLVFPGHKCGSLQLVDLASTKPGTSSAPFTINAHQSDIACVSLNQPGTVVASASQKGTLIRLFDTQSKEKLVELRRGTDPATLYCINFSHDSSFLCASSDKGTVHIFALKDTRLNRRSALARVGKVGPMIGQYVDSQWSLASFTVPAESACICAFGRNTSKNVNSVIAICVDGTFHKYVFTPDGNCNREAFDVYLDICDDDDF

— doi:10.1101/180315 (bioRxiv, 2018)
